In US20250295642A1, “FLUOROQUINOXALINONE DERIVATIVE FOR SELECTIVELY INHIBITING PARP1” (MEDSHINE DISCOVERY INC., priority 2022, published 2025):
pIC50: −log10 of the molar value. Structures were worked out from names or drawings and are uncertain.

The chains behind the UniProt entries cited, without tags or fusion partners.
UniProt Q9UGN5, whole entry: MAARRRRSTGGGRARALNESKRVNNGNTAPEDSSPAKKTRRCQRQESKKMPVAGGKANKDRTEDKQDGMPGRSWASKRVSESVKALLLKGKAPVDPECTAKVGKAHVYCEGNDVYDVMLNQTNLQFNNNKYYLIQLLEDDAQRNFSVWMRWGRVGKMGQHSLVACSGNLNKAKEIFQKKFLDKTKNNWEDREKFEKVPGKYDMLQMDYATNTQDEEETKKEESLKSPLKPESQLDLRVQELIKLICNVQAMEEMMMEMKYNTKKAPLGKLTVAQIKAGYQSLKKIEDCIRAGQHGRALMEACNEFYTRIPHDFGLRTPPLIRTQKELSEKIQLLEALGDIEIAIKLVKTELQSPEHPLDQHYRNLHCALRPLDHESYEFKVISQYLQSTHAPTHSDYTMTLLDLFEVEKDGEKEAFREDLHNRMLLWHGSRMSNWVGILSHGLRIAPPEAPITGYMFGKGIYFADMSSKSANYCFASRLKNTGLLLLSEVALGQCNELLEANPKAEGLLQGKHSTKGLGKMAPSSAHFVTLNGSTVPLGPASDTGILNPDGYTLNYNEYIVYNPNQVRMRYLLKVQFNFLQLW

Tests used:
[1] = test system: MDA-MB-436 cells (BRCA1 mutation); assay: Anti-proliferation assay on MDA-MB-436 cells (BRCA1 mutation); details: read-out: IC50, proliferation inhibition on MDA-MB-436 cells (BRCA1 mutation); incubated for 7 days, chemiluminescent cell viability
MDR1-MDCK II cell line = assay: Permeability evaluation on MDR1-MDCK II cell line; type: in vitro ADME
PARP2 = PARP2 (Homo sapiens (Human), UniProt Q9UGN5); assay: Binding activity between compound and PARP2, fluorescence polarization assay; details: read-out: PARP2 IC50, 3 nM PARP2, 5 nM fluorescent probe, 4 hours at room temperature

Compound | pIC50 [1] | Permeability conclusion (MDR1-MDCK II cell line) | Permeability Papp A to B (MDR1-MDCK II cell line; 2.00 μM, 150 minutes, pH 7.40) | Permeability Papp B to A (MDR1-MDCK II cell line; 2.00 μM, 150 minutes, pH 7.40) | pIC50 (PARP2)
CNC(=O)c1ccc(N2CCN(Cc3ccc4c([nH]c(=O)c5cccnc54)c3F)CC2)c(Cl)n1 | 9.39 | High | 10.6 10^−6 cm/s | 7.2 10^−6 cm/s | 
CNC(=O)c1ccc(N2CCN(Cc3ccc4c([nH]c(=O)c5cc(F)cnc54)c3F)CC2)c(F)n1 | 9.25 |  |  |  | < 4.70
